Earlier results, collected in patent US20060104969A1, “Compositions and methods for enhancing structural and functional nervous system reorganization and recovery” (Massachusetts Institute of Technology, priority 2004, published 2006).
Some entries share one result that the patent states for a list of compounds. For at least one compound, name, drawing or mass did not settle the structure.

Tested on: neurite growth and dynamics in brain slices
Conditions: cited from earlier work

Structure (SMILES) | effective doses in slices (slices) | effective doses on neurite growth and dynamics in brain slices (brain slices)
CN(C)CCCn1cc(C2=C(c3c[nH]c4ccccc34)C(=O)NC2=O)c2ccccc21 [GF109203X] | 10 to 100 µM | 
Nc1nc2c(ncn2[C@@H]2O[C@@H]3COP(O)(=S)O[C@H]3[C@H]2O)c(=O)[nH]1 (some centres unmarked) [Rp-cGMPs] |  | 10 to 100 µM
